# Results from the supplement of paper PMC4604168 (melanoma cell lines).
# Some of the results follow. Repeats are few or missing, and single values can be far off.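 Imaging used 1,536-well plates; nuclei positive for cleaved PARP by antibody were divided by total DNA-stained nuclei to yield the apoptosis fraction. Doses for screening kept most cells viable, and cell lines differ markedly in resting and induced cleaved-PARP levels.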
# Columns and labels:
# Assay in all cases: cleaved PARP positive nuclei fraction relative to DMSO control; melanoma cells; higher = more apoptosis
# Conditions in all cases: library dose: low library concentration; 72 h
# 501Mel = test system: 501Mel
# A101D = test system: A101D
# A2058 = test system: A2058
# A375 = test system: A375
# C32 = test system: C32
# CBRC008 = test system: CBRC008 (line from a melanoma biopsy)
# CBRC013 = test system: CBRC013 (line from a melanoma biopsy)
# CBRC014 = test system: CBRC014 (line from a melanoma biopsy)
# CBRC016 = test system: CBRC016 (line from a melanoma biopsy)
# CBRC017 = test system: CBRC017 (line from a melanoma biopsy)
# COLO792 = test system: COLO792
# COLO800 = test system: COLO800
# COLO829 = test system: COLO829
# G361 = test system: G361
# IPC-298 = test system: IPC-298
# IST-MEL1 = test system: IST-MEL1
# LB2518-MEL = test system: LB2518-MEL
# LOXIMVI = test system: LOXIMVI
# MEL-HO = test system: MEL-HO
SMILES,cleaved PARP positive nuclei fraction (501Mel),cleaved PARP positive nuclei fraction (A101D),cleaved PARP positive nuclei fraction (A2058),cleaved PARP positive nuclei fraction (A375),cleaved PARP positive nuclei fraction (C32),cleaved PARP positive nuclei fraction (CBRC008),cleaved PARP positive nuclei fraction (CBRC013),cleaved PARP positive nuclei fraction (CBRC014),cleaved PARP positive nuclei fraction (CBRC016),cleaved PARP positive nuclei fraction (CBRC017),cleaved PARP positive nuclei fraction (COLO792),cleaved PARP positive nuclei fraction (COLO800),cleaved PARP positive nuclei fraction (COLO829),cleaved PARP positive nuclei fraction (G361),cleaved PARP positive nuclei fraction (IPC-298),cleaved PARP positive nuclei fraction (IST-MEL1),cleaved PARP positive nuclei fraction (LB2518-MEL),cleaved PARP positive nuclei fraction (LOXIMVI),cleaved PARP positive nuclei fraction (MEL-HO)
"CS(=O)(=O)CCNCc1ccc(-c2ccc3ncnc(Nc4ccc(OCc5cccc(F)c5)c(Cl)c4)c3c2)o1 [lapatinib] + NC(=O)Nc1cc(-c2cccc(F)c2)sc1C(=O)N[C@H]1CCCNC1 [AZD7762] (first compound 0.8 µM, partner dose 0.02 µM)",164%,217%,159%,527%,184%,242%,86%,83.3%,66.6%,116%,174%,70.1%,87.2%,168%,86.2%,61%,73.7%,81.7%,88.7%
"O=C(O)c1ccc2c(c1)nc(Nc1cccc(Cl)c1)c1ccncc12 + O=C(O)c1ccc(-c2c[nH]c3ncc(-c4ccccc4)cc23)cc1C1CCCC1 [GSK650394] (first compound 0.4 µM, partner dose 0.16 µM)",115%,43.1%,169%,133%,91.7%,283%,138%,129%,140%,215%,63.7%,61.6%,28.4%,138%,197%,69.1%,44.7%,97.1%,132%
"CN1CCN(c2ccc3nc(-c4c(N)c5c(F)cccc5[nH]c4=O)[nH]c3c2)CC1 [Dovitinib] + C=CCn1c(=O)c2cnc(Nc3ccc(N4CCN(C)CC4)cc3)nc2n1-c1cccc(C(C)(C)O)n1 [MK1775] (first compound 0.1 µM, partner dose 0.02 µM)",101%,58.6%,41.6%,264%,48.6%,110%,123%,115%,156%,103%,95.7%,69.3%,203%,48.7%,47.3%,48.8%,65.4%,124%,149%
"Cc1cc(Nc2cc(N3CCN(C)CC3)nc(/C=C/c3ccccc3)n2)n[nH]1 + C=CCn1c(=O)c2cnc(Nc3ccc(N4CCN(C)CC4)cc3)nc2n1-c1cccc(C(C)(C)O)n1 [MK1775] (first compound 0.04 µM, partner dose 0.02 µM)",74.7%,97.8%,165%,189%,114%,65.9%,110%,114%,110%,68.4%,155%,162%,110%,98.1%,60.9%,32.1%,61.9%,70.4%,153%
"CO[C@H]1C[C@@H]2CC[C@@H](C)[C@@](O)(O2)C(=O)C(=O)N2CCCC[C@H]2C(=O)O[C@H]([C@H](C)C[C@@H]2CC[C@@H](OCCO)[C@H](OC)C2)CC(=O)[C@H](C)/C=C(\C)[C@@H](O)[C@@H](OC)C(=O)[C@H](C)C[C@H](C)/C=C/C=C/C=C/1C [everolimus] + O=C(Nc1cccc(Cl)c1)Nc1ncc(CCNc2ncnc3ccsc23)s1 [SNS314] (first compound 0.02 µM, partner dose 0.0008 µM)",141%,209%,102%,338%,56.1%,199%,227%,160%,122%,151%,341%,196%,146%,146%,186%,153%,60.9%,47.5%,106%
"CO[C@H]1C[C@@H]2CC[C@@H](C)[C@@](O)(O2)C(=O)C(=O)N2CCCC[C@H]2C(=O)O[C@H]([C@H](C)C[C@@H]2CC[C@@H](OCCO)[C@H](OC)C2)CC(=O)[C@H](C)/C=C(\C)[C@@H](O)[C@@H](OC)C(=O)[C@H](C)C[C@H](C)/C=C/C=C/C=C/1C [everolimus] + O=C(CCCCCCC(=O)Nc1ccccc1)NO [vorinostat] (first compound 0.02 µM, partner dose 0.08 µM)",289%,105%,122%,80%,72.7%,51.7%,43.2%,66.1%,174%,121%,213%,68.5%,130%,44.4%,34.1%,95.3%,40.3%,114%,256%
"CS(=O)(=O)CCNCc1ccc(-c2ccc3ncnc(Nc4ccc(OCc5cccc(F)c5)c(Cl)c4)c3c2)o1 [lapatinib] + O=C(CCCCCCC(=O)Nc1ccccc1)NO [vorinostat] (first compound 0.8 µM, partner dose 0.08 µM)",124%,169%,152%,71.7%,232%,410%,65.1%,84.8%,89%,90.9%,155%,59.3%,70.4%,157%,43.4%,108%,366%,67.1%,140%
"CNC(=O)c1cc(Oc2ccc(NC(=O)Nc3ccc(Cl)c(C(F)(F)F)c3)cc2)ccn1 [sorafenib] + Cn1cncc1[C@@](N)(c1ccc(Cl)cc1)c1ccc2c(c1)c(-c1cccc(Cl)c1)cc(=O)n2C [tipifarnib] (first compound 0.4 µM, partner dose 0.01 µM)",179%,82.1%,115%,120%,104%,144%,176%,94.4%,143%,94.3%,111%,47.5%,74.6%,81.3%,159%,213%,51.2%,357%,128%
"CNC(=O)c1cc(Oc2ccc(NC(=O)Nc3ccc(Cl)c(C(F)(F)F)c3)cc2)ccn1 [sorafenib] + NC(=O)Nc1cc(-c2cccc(F)c2)sc1C(=O)N[C@H]1CCCNC1 [AZD7762] (first compound 0.4 µM, partner dose 0.02 µM)",84.9%,148%,88.6%,102%,51.9%,118%,126%,89.2%,74.6%,195%,81.6%,111%,224%,56.7%,64.5%,89.8%,72.1%,121%,255%
"Cn1c(=O)n(-c2ccc(C(C)(C)C#N)cc2)c2c3cc(-c4cnc5ccccc5c4)ccc3ncc21 + Cn1cncc1[C@@](N)(c1ccc(Cl)cc1)c1ccc2c(c1)c(-c1cccc(Cl)c1)cc(=O)n2C [tipifarnib] (first compound 0.004 µM, partner dose 0.01 µM)",203%,104%,198%,251%,131%,133%,102%,98%,190%,120%,95.2%,173%,26.7%,116%,49.3%,105%,110%,145%,119%
"CNC(=O)c1cc(Oc2ccc(NC(=O)Nc3ccc(Cl)c(C(F)(F)F)c3)cc2)ccn1 [sorafenib] + O=C(O)c1ccc(-c2c[nH]c3ncc(-c4ccccc4)cc23)cc1C1CCCC1 [GSK650394] (first compound 0.4 µM, partner dose 0.16 µM)",71%,166%,93.2%,31.9%,106%,117%,145%,82.3%,178%,244%,49.5%,95%,91.1%,113%,187%,77.3%,77.9%,80.1%,266%
"Cn1c(=O)n(-c2ccc(C(C)(C)C#N)cc2)c2c3cc(-c4cnc5ccccc5c4)ccc3ncc21 + OCCn1cc(-c2cnc3nnn(Cc4ccc5ncccc5c4)c3n2)cn1 [PF04217903] (first compound 0.004 µM, partner dose 1 µM)",49.2%,93.3%,107%,75.9%,50.6%,100%,67.6%,89.2%,137%,101%,105%,36.3%,105%,120%,59.8%,193%,148%,66.2%,78.1%
"Cc1cc(Nc2cc(N3CCN(C)CC3)nc(/C=C/c3ccccc3)n2)n[nH]1 + Cc1ccc(NC(=O)c2cccc(N(C)C)c2)cc1NC(=O)c1ccc(O)cc1 [ZM336372] (first compound 0.04 µM, partner dose 2 µM)",140%,81.6%,73.5%,157%,96.1%,34.2%,115%,637%,201%,92.8%,185%,157%,241%,74.3%,26.4%,93%,54.9%,945%,125%
"CS(=O)(=O)CCNCc1ccc(-c2ccc3ncnc(Nc4ccc(OCc5cccc(F)c5)c(Cl)c4)c3c2)o1 [lapatinib] + C[C@@H]1CCN(C(=O)CC#N)C[C@@H]1N(C)c1ncnc2[nH]ccc12 [CP690550] (first compound 0.8 µM, partner dose 1 µM)",96.1%,20.8%,83.7%,236%,89.1%,61.5%,135%,171%,73.8%,208%,127%,138%,90.8%,66.9%,97.4%,141%,43.6%,139%,46.2%
"O=C(O)c1ccc2c(c1)nc(Nc1cccc(Cl)c1)c1ccncc12 + COc1cc2c(Oc3ccc4[nH]c(C)cc4c3F)ncnc2cc1OCCCN1CCCC1 [cediranib] (first compound 0.4 µM, partner dose 0.4 µM)",270%,108%,128%,184%,87.8%,177%,121%,181%,103%,128%,175%,68.2%,93.2%,121%,63.6%,84%,64.1%,132%,155%
"CO[C@H]1C[C@@H]2CC[C@@H](C)[C@@](O)(O2)C(=O)C(=O)N2CCCC[C@H]2C(=O)O[C@H]([C@H](C)C[C@@H]2CC[C@@H](OCCO)[C@H](OC)C2)CC(=O)[C@H](C)/C=C(\C)[C@@H](O)[C@@H](OC)C(=O)[C@H](C)C[C@H](C)/C=C/C=C/C=C/1C [everolimus] + COc1cc(Nc2ncc(F)c(Nc3ccc4c(n3)NC(=O)C(C)(C)O4)n2)cc(OC)c1OC [Tamatinib] (first compound 0.02 µM, partner dose 0.4 µM)",580%,185%,367%,290%,154%,739%,120%,91.8%,71.3%,116%,239%,199%,234%,88.8%,160%,186%,276%,93.4%,198%

# Exported as tab-separated lines: part of the list above.
SMILES	cleaved PARP positive nuclei fraction (501Mel)	cleaved PARP positive nuclei fraction (A101D)	cleaved PARP positive nuclei fraction (A2058)	cleaved PARP positive nuclei fraction (A375)	cleaved PARP positive nuclei fraction (C32)	cleaved PARP positive nuclei fraction (CBRC008)	cleaved PARP positive nuclei fraction (CBRC013)	cleaved PARP positive nuclei fraction (CBRC014)	cleaved PARP positive nuclei fraction (CBRC016)	cleaved PARP positive nuclei fraction (CBRC017)	cleaved PARP positive nuclei fraction (COLO792)	cleaved PARP positive nuclei fraction (COLO800)	cleaved PARP positive nuclei fraction (COLO829)	cleaved PARP positive nuclei fraction (G361)	cleaved PARP positive nuclei fraction (IPC-298)	cleaved PARP positive nuclei fraction (IST-MEL1)	cleaved PARP positive nuclei fraction (LB2518-MEL)	cleaved PARP positive nuclei fraction (LOXIMVI)	cleaved PARP positive nuclei fraction (MEL-HO)
CN1CCN(c2ccc3nc(-c4c(N)c5c(F)cccc5[nH]c4=O)[nH]c3c2)CC1 [Dovitinib] + C=CCn1c(=O)c2cnc(Nc3ccc(N4CCN(C)CC4)cc3)nc2n1-c1cccc(C(C)(C)O)n1 [MK1775] (first compound 0.1 µM, partner dose 0.02 µM)	101%	58.6%	41.6%	264%	48.6%	110%	123%	115%	156%	103%	95.7%	69.3%	203%	48.7%	47.3%	48.8%	65.4%	124%	149%
Cc1cc(Nc2cc(N3CCN(C)CC3)nc(/C=C/c3ccccc3)n2)n[nH]1 + C=CCn1c(=O)c2cnc(Nc3ccc(N4CCN(C)CC4)cc3)nc2n1-c1cccc(C(C)(C)O)n1 [MK1775] (first compound 0.04 µM, partner dose 0.02 µM)	74.7%	97.8%	165%	189%	114%	65.9%	110%	114%	110%	68.4%	155%	162%	110%	98.1%	60.9%	32.1%	61.9%	70.4%	153%
